Laboratory results from patent publication US6908931B2, “Tetrahydroisoquinoline derivatives as melatonin MT2 antagonists” (Bristol-Myers Squibb Company, priority 2003, dated 2005).
Some results were stated once for a whole list of compounds, not compound by compound.

Target: T1, human MT2 receptor (Homo sapiens, UniProt P49286)
T1 construct: melatonin MT1 and MT2 receptors cDNA were individually subcloned into pcDNA3 and introduced into NIH-3T3 cells using Lipofectamine; expressed in transfected cells
T1 sequence (P49286 1-362): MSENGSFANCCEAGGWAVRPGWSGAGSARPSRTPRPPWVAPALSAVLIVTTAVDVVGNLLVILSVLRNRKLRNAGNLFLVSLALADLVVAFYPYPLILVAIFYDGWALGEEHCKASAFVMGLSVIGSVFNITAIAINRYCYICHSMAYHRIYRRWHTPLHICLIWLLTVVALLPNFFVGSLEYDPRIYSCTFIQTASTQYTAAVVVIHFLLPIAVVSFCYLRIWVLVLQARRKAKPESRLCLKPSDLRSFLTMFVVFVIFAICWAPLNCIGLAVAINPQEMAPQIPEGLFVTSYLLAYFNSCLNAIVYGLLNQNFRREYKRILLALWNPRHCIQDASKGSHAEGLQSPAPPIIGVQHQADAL
Assay: Melatonin induced cAMP accumulation in intact cells (functional activity)
Format: cell-based
Details: forskolin 10 μM plus melatonin, cAMP by RIA

Row | SMILES | functional activity at the human MT2 receptor
1 | COc1cc2c(cc1OC)C(CC(c1ccccc1)c1ccccc1)N(C(C)=O)CC2 (centres unmarked) [Example 1, N-acetyl 1-(2,2-diphenyleth-1-yl)-6,7-dimethoxy-1,2,3,4-tetrahydroisoquinoline] | full antagonism
2 | COc1cc2c(cc1OC)C(CC(c1ccccc1)c1ccccc1)N(C=O)CC2 (centres unmarked) [Example 2, N-formyl 1-(2,2-diphenyleth-1-yl)-6,7-dimethoxy-1,2,3,4-tetrahydroisoquinoline] | full antagonism
3 | CCC(=O)N1CCc2cc(OC)c(OC)cc2C1CC(c1ccccc1)c1ccccc1 (centres unmarked) [Example 3, N-propionyl 1-(2,2-diphenyleth-1-yl)-6,7-dimethoxy-1,2,3,4-tetrahydroisoquinoline] | full antagonism
4 | COc1cc2c(cc1OC)C(CC(c1ccccc1)c1ccccc1)N(C(=O)C1CC1)CC2 (centres unmarked) [Example 5, N-cyclopropylcarbonyl 1-(2,2-diphenyleth-1-yl)-6,7-dimethoxy-1,2,3,4-tetrahydroisoquinoline] | full antagonism
5 | COc1cc2c(cc1OC)C(CC(c1ccccc1)c1ccccc1)N(C(=O)c1ccccc1)CC2 (centres unmarked) [Example 6, N-benzoyl 1-(2,2-diphenyleth-1-yl)-6,7-dimethoxy-1,2,3,4-tetrahydroisoquinoline] | full antagonism
6 | COc1cc2c(cc1OC)C(CC(c1ccccc1)c1ccccc1)N(C(N)=O)CC2 (centres unmarked) [Example 8, N-carbamoyl 1-(2,2-diphenyleth-1-yl)-6,7-dimethoxy-1,2,3,4-tetrahydroisoquinoline] | full antagonism
7 | CNC(=O)N1CCc2cc(OC)c(OC)cc2C1CC(c1ccccc1)c1ccccc1 (centres unmarked) [Example 9, N-methylcarbamoyl 1-(2,2-diphenyleth-1-yl)-6,7-dimethoxy-1,2,3,4-tetrahydroisoquinoline] | full antagonism
8 | COC(=O)N1CCc2cc(OC)c(OC)cc2C1CC(c1ccccc1)c1ccccc1 (centres unmarked) [Example 10, N-carbomethoxy 1-(2,2-diphenyleth-1-yl)-6,7-dimethoxy-1,2,3,4-tetrahydroisoquinoline] | full antagonism
